* marks the point of attachment. Boc = CC(C)(C)OC(=O)*; NHNH2 = NN*
Experiment: general procedure: Fmoc solid-phase peptide synthesis; Fmoc-Gly-SASRIN resin (Bachem, substitution 0.79 mmol/g)
Conditions: whole synthesis, capillary electrophoresis; for crude HPLC purity: analytical RP HPLC, LC-MS

Substance | final purity (method not given) | crude HPLC purity
[GLP-1] [[D-Ala^2, Gly^31]-PEG12]-Gly-N2H3 | greater than 94% | 
Boc-FD(NHNH2)K(Boc)D(NHNH2)FAFG-NHNH2 |  | 84%
Boc-Phe-Asp(NH—NH2)-Lys(Boc)-Asp(OMpe)-Phe-Ala-Phe-Gly-NH—NH2 |  | 56%

— US20110046348 (published 2011)
